According to patent publication US20240027453A1, “METHOD FOR DETECTION AND QUANTITATIVE MONITORING OF INFECTIONS WITH HERPESVIRUSES” (The Trustees of Princeton University, priority 2020, published 2024):
Some results were stated once for a whole list of compounds, not compound by compound. For at least one compound, name, drawing or mass did not settle the structure.

System: KSHV
Test: TRUSTED PRM assay of KSHV viral protein levels after small molecule treatment (reactivated iSLK.219 cells)
Format: cell-based, Kaposi's sarcoma-associated herpesvirus in iSLK.219 cells

Nc1c(S(=O)(=O)c2ccccc2)c2nc3ccccc3nc2n1-c1ccc(F)cc1 [CAY10602]
overall decrease in KSHV virus protein abundances (72 HPR, 10 μM EX-527, […] CAY10602): 20-30%
changes in abundance of seven KSHV proteins (ORF4, ORF24, ORF37, ORF52, ORF57, ORF59, gM) (increased with sirtuin inhibitor, decreased with activator): < 10%
